Columns and labels:
[1] = test system: BMDMs from NOD.hALOX12 mice; test: RNA sequencing of M0 and M1-like polarized BMDMs; format: cell-based, mouse; settings: 10 μM
Description: BMDMs were unpolarized (M0) or polarized to an M1-like state (with lipopolysaccharide and IFN-γ) to mimic the inflammatory state that might be observed during T1D pathogenesis.
These common genes mapped to pathways related to cytokine-mediated signaling, T cell activation, and antigen processing and presentation (Supplemental Figure 3B). […] The 507 genes altered with vehicle treatment mapped to GO pathways related to the M1 polarization phenotype (myeloid cell differentiation, immune response, response to cytokines) and pathways related to oxidative stress (cell redox homeostasis, response to hydrogen peroxides) (Figure 5E). These pathways were not identified in the genes that were differentially expressed during VLX-1005 treatment.
BMDMs were isolated from 8-week-old NOD.hALOX12 mice as described previously ([2]). The isolated BMDMs were cultured for 7 days in complete medium (RPMI 1640 containing 10% FBS, 10 mM HEPES, and 100 U/mL penicillin/streptomycin) supplemented with 10 ng/mL M-CSF. […] After 1-hour pretreatment, the BMDMs were further stimulated with 10 ng/mL LPS and 25 ng/mL IFN-γ for 18 hours for M1-like polarization. RNA was isolated and used for sequencing.
RNA extraction was performed using RLT Buffer, according to the manufacturer’s instructions (Qiagen). Samples were submitted for library generation and sequencing by the University of Chicago sequencing core using a NovaSeq 6000 (Illumina). Data were analyzed using Galaxy (https://usegalaxy.org/). Reads were aligned to the Mus musculus genome build mm10 using HISAT2 (https://daehwankimlab.github.io/hisat2/). Individual sample reads were quantified using HTseq-count and normalized using DESeq2 (https://bioconductor.org/packages/release/bioc/html/DESeq2.html). DEseq2 was also used to calculate FCs and P values and to perform optional covariate correction. GO was used for pathway analysis.

[2] = test system: islets from NOD.hALOX12 mice; test: RNA sequencing of islets isolated from treated NOD.hALOX12 mice; format: in vivo, mouse

Structure (SMILES): COc1cccc(CNc2ccc(S(=O)(=O)Nc3nc4ccccc4s3)cc2)c1O [VLX-1005]
- Additional genes significantly altered in M0 to M1 transition with treatment only ([1]; FC > 2 and P < 0.05): 459 genes
- Fraction of genes significantly altered in M0 BMDMs vs vehicle ([1]; FC > 2 and P < 0.05): 1%
- Genes significantly altered in M0 BMDMs vs vehicle ([1]; FC > 2 and P < 0.05, out of 15,888): 159 genes
- Differentially expressed genes in islets vs vehicle ([2]; FDR less than 0.05 and FC greater than 2): 189 genes
- Genes changed in islets vs vehicle ([2]; P-value cutoff 0.05 and FC greater than 2): 709 genes

Source: paper PMC11665553, “12-Lipoxygenase inhibition delays onset of autoimmune diabetes in human gene replacement mice” (JCI Insight, 2024)
